Data on 5 molecules can be found in publication PMC10044308.

Sequences of proteins named here, by UniProt entry; tags and fusion partners are left off. A change or cut given only in a name is not applied to a line headed by its entry.
UniProt P04406: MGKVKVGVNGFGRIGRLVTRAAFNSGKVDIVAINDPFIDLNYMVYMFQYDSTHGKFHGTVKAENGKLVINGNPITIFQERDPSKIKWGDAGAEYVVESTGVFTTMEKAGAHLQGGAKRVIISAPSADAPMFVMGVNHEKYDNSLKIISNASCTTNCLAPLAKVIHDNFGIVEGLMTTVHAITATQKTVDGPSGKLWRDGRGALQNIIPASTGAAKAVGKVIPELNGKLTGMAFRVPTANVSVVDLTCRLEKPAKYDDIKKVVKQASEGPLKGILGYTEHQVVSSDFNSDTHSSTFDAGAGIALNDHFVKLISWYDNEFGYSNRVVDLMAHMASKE
UniProt P06733: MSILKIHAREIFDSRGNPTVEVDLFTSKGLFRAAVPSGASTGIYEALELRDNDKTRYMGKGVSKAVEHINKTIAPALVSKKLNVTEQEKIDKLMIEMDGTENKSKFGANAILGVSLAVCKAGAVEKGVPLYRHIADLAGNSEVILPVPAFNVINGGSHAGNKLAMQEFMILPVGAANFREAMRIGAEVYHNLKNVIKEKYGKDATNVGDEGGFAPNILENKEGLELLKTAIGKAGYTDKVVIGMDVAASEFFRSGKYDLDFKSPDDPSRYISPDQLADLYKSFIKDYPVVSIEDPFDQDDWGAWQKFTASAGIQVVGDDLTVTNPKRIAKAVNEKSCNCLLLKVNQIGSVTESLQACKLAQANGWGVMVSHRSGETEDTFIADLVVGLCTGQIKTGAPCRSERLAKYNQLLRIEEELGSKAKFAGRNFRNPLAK
UniProt O14744: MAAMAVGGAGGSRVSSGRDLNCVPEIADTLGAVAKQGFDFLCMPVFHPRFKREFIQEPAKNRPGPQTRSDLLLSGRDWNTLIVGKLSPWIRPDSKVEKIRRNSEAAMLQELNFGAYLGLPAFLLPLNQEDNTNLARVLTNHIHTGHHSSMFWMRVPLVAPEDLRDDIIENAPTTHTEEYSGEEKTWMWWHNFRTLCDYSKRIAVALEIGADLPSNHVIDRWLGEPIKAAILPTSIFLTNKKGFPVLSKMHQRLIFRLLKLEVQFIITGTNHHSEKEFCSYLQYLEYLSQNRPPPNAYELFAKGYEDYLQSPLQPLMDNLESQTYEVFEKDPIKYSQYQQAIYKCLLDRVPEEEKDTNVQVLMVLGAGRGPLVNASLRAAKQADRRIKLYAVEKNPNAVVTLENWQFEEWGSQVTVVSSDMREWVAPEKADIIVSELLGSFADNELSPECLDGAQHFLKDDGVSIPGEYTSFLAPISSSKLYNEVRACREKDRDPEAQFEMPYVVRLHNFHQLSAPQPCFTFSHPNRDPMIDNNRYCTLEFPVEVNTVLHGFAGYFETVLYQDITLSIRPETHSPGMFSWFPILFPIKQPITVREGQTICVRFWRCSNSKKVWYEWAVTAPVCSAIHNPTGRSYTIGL

For experiment [1], the target named is T1, Flag-tagged HK2 (UniProt P52789).
T1 sequence: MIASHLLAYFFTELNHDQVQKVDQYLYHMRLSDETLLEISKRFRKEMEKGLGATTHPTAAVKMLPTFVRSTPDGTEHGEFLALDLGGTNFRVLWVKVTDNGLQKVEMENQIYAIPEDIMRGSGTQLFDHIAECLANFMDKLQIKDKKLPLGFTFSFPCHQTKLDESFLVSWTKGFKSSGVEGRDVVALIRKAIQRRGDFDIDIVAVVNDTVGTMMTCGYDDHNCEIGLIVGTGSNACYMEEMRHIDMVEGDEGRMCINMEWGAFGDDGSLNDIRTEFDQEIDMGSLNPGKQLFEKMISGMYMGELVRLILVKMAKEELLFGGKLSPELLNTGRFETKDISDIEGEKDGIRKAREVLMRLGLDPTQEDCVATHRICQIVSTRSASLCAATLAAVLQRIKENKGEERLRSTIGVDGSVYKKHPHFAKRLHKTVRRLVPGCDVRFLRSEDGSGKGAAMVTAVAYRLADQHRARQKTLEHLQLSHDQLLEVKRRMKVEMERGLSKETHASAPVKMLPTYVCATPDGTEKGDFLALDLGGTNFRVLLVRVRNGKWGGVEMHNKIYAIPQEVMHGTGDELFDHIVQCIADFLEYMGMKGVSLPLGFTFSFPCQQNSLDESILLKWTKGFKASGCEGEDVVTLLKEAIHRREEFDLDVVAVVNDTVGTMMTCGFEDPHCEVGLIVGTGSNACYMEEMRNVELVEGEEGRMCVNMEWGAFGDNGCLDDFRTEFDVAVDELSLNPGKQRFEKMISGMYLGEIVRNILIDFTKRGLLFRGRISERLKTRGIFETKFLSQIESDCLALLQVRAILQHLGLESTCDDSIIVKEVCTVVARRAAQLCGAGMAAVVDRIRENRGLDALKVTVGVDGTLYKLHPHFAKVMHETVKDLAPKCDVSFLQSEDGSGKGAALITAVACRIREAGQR
The experiment can be described thus: co-IP; called Flag pull-down: Flag-conjugated beads added to NP40 lysate of cells expressing the Flag-tagged bait, overnight at 4°C, washed three times with PBS, western blotting.

The target in experiment [2] is Flag-tagged GAPDH (UniProt P04406). Described as above.
Experiment [3] deals with GST-tagged ENO1 expressed in 293T cells (human) (UniProt P06733). Briefly: pull-down; GST pull-down: GST-conjugated beads added to NP40 lysate of 293T cells expressing GST-ENO1, overnight at 4°C, washed with PBS, western blotting for endogenous PRMT5.
The target in experiment [4] is endogenous ENO1 of A2780 cells (human (endogenous in A2780)) (UniProt P06733). The experiment can be described thus: co-IP; A2780 extracts immunoprecipitated with anti-ENO1 or control rabbit IgG, western blotted by PRMT5 antibody. In general terms: Immunoblotting shows a protein as a band on a membrane.
Experiment [5] addresses Flag-tagged PRMT5 (protein arginine methyltransferase 5) (human) (UniProt O14744). The experiment can be described thus: co-IP; called Flag pull-down: Flag-conjugated beads added to NP40 lysate of cells expressing the Flag-tagged bait, overnight at 4°C, washed three times with PBS, western blotting.
Experiment [6] concerns the target Flag-tagged ENO1 WT (human) (UniProt P06733). Briefly: co-IP; called Flag pull-down: Flag-ENO1 WT, R9K or R412K expressed in 293T cells, Flag beads, western blotting for endogenous ENO1; also in cells with knockdown of PRMT5 (Figure S3F).
Experiment [7] deals with Flag-tagged ENO1 R412K (human) (UniProt P06733). The description is as above.

These are yes or no findings as the source states them, for the method shown. Binding seen in cells or lysates may run through a third protein. Some entries that bind do so weakly or less than the wild type. For part of these data: Tags and fused reporters may be left off the sequences shown.

Consider “endogenous PRMT5 of 293T cells (from UniProt O14744 1-637) (enzyme)”, for which the binding result in experiment [1], in experiment [2] and in experiment [3] was “binds” each time.
With “endogenous PRMT5 of A2780 cells (from UniProt O14744 1-637) (enzyme)”, the binding entry in experiment [4] was “binds”.
Regarding “glyceraldehyde-3-phosphate dehydrogenase (GAPDH) in HEK293T cells (from UniProt P04406 1-335) (enzyme)”, the binding result in experiment [5] is given as “binds”.
Turning to “alpha-enolase (ENO1) in HEK293T cells (from UniProt P06733 1-434) (enzyme)”, the binding result in experiment [5], in experiment [6] and in experiment [7] was “binds” in each case.

B1: hexokinase 2 (HK2) in HEK293T cells (enzyme, UniProt P52789 1-917)
chain: T1 sequence
Regarding B1, the binding result in experiment [5] was “binds”.
